The values that follow come from PMC4667048.

No constants are given. Whether binding was seen depends on the method and setting. For part of these data: Binding calls can cover weak binding; strength is not graded here.

Common to all, as to experiment: two-hybrid; pairs of pDEST-AD and pDEST-DB vectors co-transformed into yeast strain AH109; growth on lower stringency plates, -HWL with 20 mM 3AT, after 6 days (Figure 6A; for AP1, mAP1 and FUL the text cites Figure 6 as a whole)
Test [1] has as its target T1, … (PI) (Arabidopsis thaliana) (UniProt P48007).
T1 sequence: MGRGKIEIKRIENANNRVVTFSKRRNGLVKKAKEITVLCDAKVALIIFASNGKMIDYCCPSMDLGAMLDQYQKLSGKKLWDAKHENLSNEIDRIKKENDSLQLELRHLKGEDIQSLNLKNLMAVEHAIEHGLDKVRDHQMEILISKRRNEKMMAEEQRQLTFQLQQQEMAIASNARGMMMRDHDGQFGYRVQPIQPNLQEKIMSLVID

Test [2] concerns the target T2, AGAMOUS-LIKE 24 (AGL24) (Arabidopsis thaliana) (UniProt O82794).
T2 sequence: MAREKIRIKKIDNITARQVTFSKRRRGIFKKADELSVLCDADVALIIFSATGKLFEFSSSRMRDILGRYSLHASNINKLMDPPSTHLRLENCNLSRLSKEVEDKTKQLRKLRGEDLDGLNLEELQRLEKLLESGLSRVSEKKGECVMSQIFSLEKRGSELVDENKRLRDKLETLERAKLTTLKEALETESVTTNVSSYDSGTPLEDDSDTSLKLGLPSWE

Test [3] has as its target T3, APETALA3 (AP3) (Arabidopsis thaliana) (UniProt P35632).
T3 sequence: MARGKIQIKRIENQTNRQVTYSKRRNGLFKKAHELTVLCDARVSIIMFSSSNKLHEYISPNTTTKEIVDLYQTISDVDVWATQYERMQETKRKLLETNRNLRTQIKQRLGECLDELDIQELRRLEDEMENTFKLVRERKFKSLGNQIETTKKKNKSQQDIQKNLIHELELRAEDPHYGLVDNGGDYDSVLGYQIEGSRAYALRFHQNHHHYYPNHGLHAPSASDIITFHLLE

Take “tFUL (FUL truncated just before the FUL-like motif) (Arabidopsis thaliana) (domain or fragment)”: the binding entry in test [1] was “no binding”; in test [2], “binds”; in test [3], “no binding”.
